Laboratory results taken from article PMC3823977.
Results are given in words; binding and its absence hold for the method and conditions named. In cells and extracts the contact can be indirect. Some binding calls cover weakened binding; strength is not graded here. Tags and fused reporters may be left off the sequences shown.

Columns and labels:
[1] = target: T1, C14orf178-GFP, GFP-tagged C14orf178 isoform1 (human) (UniProt Q8N769); assay: co-IP; HEK293 cells co-transfected, RIPA lysate, anti-GFP magnetic beads overnight at 4°C, anti-FLAG blot
T1 sequence: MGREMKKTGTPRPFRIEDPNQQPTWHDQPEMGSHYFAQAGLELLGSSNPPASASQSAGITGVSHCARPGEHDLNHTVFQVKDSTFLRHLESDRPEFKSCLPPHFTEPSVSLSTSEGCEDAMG

[2] = target: Flag-L389S-SETX, FLAG-tagged amino-terminal senataxin (1–650) with L389S (human) (UniProt Q7Z333); assay: cross-linking; HeLa cells transfected with FLAG-tagged amino-terminal senataxin, treated with disuccinimidyl suberate (DSS), anti-FLAG Western blot

B1: Flag-L389S-SETX, FLAG-tagged amino-terminal senataxin (1–650) with L389S (domain or fragment, UniProt Q7Z333-1 1-650)
chain: MSTCCWCTPGGASTIDFLKRYASNTPSGEFQTADEDLCYCLECVAEYHKARDELPFLHEVLWELETLRLINHFEKSMKAEIGDDDELYIVDNNGEMPLFDITGQDFENKLRVPLLEILKYPYLLLHERVNELCVEALCRMEQANCSFQVFDKHPGIYLFLVHPNEMVRRWAILTARNLGKVDRDDYYDLQEVLLCLFKVIELGLLESPDIYTSSVLEKGKLILLPSHMYDTTNYKSYWLGICMLLTILEEQAMDSLLLGSDKQNDFMQSILHTMEREADDDSVDPFWPALHCFMVILDRLGSKVWGQLMDPIVAFQTIINNASYNREIRHIRNSSVRTKLEPESYLDDMVTCSQIVYNYNPEKTKKDSGWRTAICPDYCPNMYEEMETSASVLQSDIGQDMRVHNSTFLWFIPFVQSLMDLKDLGVAYIAQVVNHLYSEVKEVLNQTDAVCDKVTEFFLLILVSVIELHRNKKCLHLLWVSSQQWVEAVVKCAKLPTTAFTRSSEKSSGNCSKGTAMISSLSLHSMPSNSVQLAYVQLIRSLLKEGYQLGQQSLCKRFWDKLNLFLRGNLSLGWQLTSQETHELQSCLKQIIRNIKFKAPPCNTFVDLTSACKISPASYNKEESEQMGKTSRKDMHCLEASSPTFSKEPM
[1]
  binding: binds
[2]
  binding: binds
